The text below walks through data of PMC10324254.

Amino acid sequences for entries named in this document (tags omitted).
UniProt P09874: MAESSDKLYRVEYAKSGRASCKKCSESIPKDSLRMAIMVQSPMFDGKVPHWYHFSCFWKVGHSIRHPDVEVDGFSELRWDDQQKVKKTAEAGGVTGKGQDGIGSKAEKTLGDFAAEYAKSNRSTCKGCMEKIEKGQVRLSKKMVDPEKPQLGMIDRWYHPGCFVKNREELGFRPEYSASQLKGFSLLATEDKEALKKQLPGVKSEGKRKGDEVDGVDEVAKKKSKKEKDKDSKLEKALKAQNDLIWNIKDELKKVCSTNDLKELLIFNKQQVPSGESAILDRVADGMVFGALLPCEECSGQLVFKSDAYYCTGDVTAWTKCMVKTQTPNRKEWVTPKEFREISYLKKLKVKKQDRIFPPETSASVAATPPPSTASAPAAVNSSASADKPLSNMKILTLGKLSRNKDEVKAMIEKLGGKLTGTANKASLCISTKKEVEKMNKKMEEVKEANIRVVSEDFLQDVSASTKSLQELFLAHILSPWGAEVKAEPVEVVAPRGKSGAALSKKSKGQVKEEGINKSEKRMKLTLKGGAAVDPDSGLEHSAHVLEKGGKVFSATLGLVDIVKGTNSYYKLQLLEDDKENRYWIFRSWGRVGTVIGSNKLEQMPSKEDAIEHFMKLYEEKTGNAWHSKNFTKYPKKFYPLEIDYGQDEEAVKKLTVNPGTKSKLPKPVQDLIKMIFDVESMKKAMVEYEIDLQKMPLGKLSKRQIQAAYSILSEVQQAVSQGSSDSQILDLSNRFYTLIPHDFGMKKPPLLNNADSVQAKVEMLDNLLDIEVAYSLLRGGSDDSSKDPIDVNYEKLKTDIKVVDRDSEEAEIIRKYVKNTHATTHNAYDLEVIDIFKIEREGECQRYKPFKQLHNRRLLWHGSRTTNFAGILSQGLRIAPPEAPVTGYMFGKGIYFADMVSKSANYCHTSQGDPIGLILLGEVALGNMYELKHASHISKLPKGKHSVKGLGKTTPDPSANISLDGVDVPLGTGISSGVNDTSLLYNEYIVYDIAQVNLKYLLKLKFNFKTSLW
UniProt P08238: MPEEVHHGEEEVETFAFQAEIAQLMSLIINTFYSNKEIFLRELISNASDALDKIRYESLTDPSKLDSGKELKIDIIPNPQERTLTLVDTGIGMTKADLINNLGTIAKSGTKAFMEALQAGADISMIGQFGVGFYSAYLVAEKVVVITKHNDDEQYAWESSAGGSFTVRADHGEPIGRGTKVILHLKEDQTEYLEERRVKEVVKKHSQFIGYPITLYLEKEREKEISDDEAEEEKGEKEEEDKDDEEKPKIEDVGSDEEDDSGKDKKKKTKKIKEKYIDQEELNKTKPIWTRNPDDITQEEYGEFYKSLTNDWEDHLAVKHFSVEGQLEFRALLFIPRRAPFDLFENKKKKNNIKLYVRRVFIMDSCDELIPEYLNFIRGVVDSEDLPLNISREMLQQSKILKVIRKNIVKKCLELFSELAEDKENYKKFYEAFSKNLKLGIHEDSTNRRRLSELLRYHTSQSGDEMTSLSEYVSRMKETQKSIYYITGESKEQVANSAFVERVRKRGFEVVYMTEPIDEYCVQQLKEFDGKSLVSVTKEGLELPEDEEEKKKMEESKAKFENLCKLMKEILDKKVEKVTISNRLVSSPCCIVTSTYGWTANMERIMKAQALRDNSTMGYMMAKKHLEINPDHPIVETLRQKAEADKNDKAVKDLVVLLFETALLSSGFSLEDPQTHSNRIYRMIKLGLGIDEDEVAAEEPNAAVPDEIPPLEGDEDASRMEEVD

Results are given in words; binding and its absence hold for the method and conditions named. In cells and extracts the contact can be indirect. Some entries that bind do so weakly or less than the wild type.

Assay [1] deals with PARP1 (poly (ADP-ribose) polymerase 1) (human (endogenous in PC3)) (UniProt P09874). As to the kind of experiment: co-IP; endogenous proteins in PC3 cell lysates (IP Binding buffer with PMSF); antibody against PARP1 or HSP90AB1 or control IgG on protein A/G beads, overnight at 4 °C; western blot.
The target of assay [2] is HSP90AB1 (heat shock protein alpha family class B) (human (endogenous in PC3)) (UniProt P08238). The description is as above.

As to “HSP90AB1 (heat shock protein alpha family class B) (from UniProt P08238 1-724)”, the binding result in assay [1] was “binds”.
Consider “PARP1 (poly (ADP-ribose) polymerase 1) (from UniProt P09874 1-1014)”, for which the binding entry in assay [2] is on record as “binds”.
